No constants are given. Whether binding was seen depends on the method and setting. For part of these data: Binding seen in cells or lysates may run through a third protein. Some binding calls cover weakened binding; strength is not graded here. Tags and fused reporters may be left off the sequences shown. Blank lines part the entries; values can stand above or below the binder they belong to.
Legend:
[1] = biological target: T1, biotinylated recombinant HDA6 protein (HDA6-6xHis-bls) (Arabidopsis thaliana) (UniProt Q9FML2); assay: AlphaScreen or HTRF; in vitro; biotinylated HDA6 and FLAG-conjugated TPL/TPR made by cell-free protein synthesis; luminescence compared to FLAG-GFP control; method after Yano et al. 2016
T1 sequence (chain, biotin (at the biotin ligation site)): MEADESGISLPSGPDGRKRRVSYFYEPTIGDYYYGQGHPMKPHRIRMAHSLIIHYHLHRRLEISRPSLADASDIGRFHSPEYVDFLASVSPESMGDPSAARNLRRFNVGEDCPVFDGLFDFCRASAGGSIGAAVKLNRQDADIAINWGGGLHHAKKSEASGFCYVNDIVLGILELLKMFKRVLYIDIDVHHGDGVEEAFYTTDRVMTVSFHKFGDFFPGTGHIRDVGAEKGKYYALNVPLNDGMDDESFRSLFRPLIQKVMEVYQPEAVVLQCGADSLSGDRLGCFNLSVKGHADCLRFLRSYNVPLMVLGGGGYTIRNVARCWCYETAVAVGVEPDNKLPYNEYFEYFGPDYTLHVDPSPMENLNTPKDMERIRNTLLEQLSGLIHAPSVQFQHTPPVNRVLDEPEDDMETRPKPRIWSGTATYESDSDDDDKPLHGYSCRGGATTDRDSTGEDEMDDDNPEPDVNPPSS

The chains behind the UniProt entries cited, without tags or fusion partners.
UniProt Q8L9K1: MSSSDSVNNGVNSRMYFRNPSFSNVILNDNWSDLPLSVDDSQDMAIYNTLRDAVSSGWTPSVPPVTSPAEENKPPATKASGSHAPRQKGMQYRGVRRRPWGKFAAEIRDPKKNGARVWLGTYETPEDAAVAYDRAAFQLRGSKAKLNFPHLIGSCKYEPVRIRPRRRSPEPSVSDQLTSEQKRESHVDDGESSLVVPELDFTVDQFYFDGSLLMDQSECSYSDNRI

[2] = biological target: T2, HDA6 fused to the N-terminal fragment of Venus (Arabidopsis thaliana) (UniProt Q9FML2); assay: split reporter; BiFC with nVenus and cVenus fusions co-expressed in N. benthamiana leaf cells by agroinfiltration, 48 h at 24 °C, fluorescence microscopy, DAPI for nuclei
T2 sequence: T1 sequence (chain, biotin (at the biotin ligation site))

[3] = biological target: ERF13 fused to the N-terminal fragment of Venus (Arabidopsis thaliana) (UniProt Q8L9K1); assay: as above

binding [1]: binds
B1: FLAG-conjugated TPL (protein, UniProt Q94AI7 1-1131)
chain: MSSLSRELVFLILQFLDEEKFKETVHKLEQESGFFFNMKYFEDEVHNGNWDEVEKYLSGFTKVDDNRYSMKIFFEIRKQKYLEALDKHDRPKAVDILVKDLKVFSTFNEELFKEITQLLTLENFRENEQLSKYGDTKSARAIMLVELKKLIEANPLFRDKLQFPTLRNSRLRTLINQSLNWQHQLCKNPRPNPDIKTLFVDHSCGPPNGARAPSPVNNPLLGGIPKAGGFPPLGAHGPFQPTASPVPTPLAGWMSSPSSVPHPAVSAGAIALGGPSIPAALKHPRTPPTNASLDYPSADSEHVSKRTRPMGISDEVNLGVNMLPMSFSGQAHGHSPAFKAPDDLPKTVARTLSQGSSPMSMDFHPIKQTLLLVGTNVGDIGLWEVGSRERLVQKTFKVWDLSKCSMPLQAALVKEPVVSVNRVIWSPDGSLFGVAYSRHIVQLYSYHGGEDMRQHLEIDAHVGGVNDISFSTPNKQLCVITCGDDKTIKVWDAATGVKRHTFEGHEAPVYSVCPHYKENIQFIFSTALDGKIKAWLYDNMGSRVDYDAPGRWCTTMAYSADGTRLFSCGTSKDGESFIVEWNESEGAVKRTYQGFHKRSLGVVQFDTTKNRYLAAGDDFSIKFWDMDAVQLLTAIDGDGGLQASPRIRFNKEGSLLAVSGNENVIKIMANSDGLRLLHTFENISSESSKPAINSIAAAAAAAATSAGHADRSANVVSIQGMNGDSRNMVDVKPVITEESNDKSKIWKLTEVSEPSQCRSLRLPENLRVAKISRLIFTNSGNAILALASNAIHLLWKWQRNERNATGKATASLPPQQWQPASGILMTNDVAETNPEEAVPCFALSKNDSYVMSASGGKISLFNMMTFKTMATFMPPPPAATFLAFHPQDNNIIAIGMDDSTIQIYNVRVDEVKSKLKGHSKRITGLAFSNVLNVLVSSGADAQLCVWNTDGWEKQRSKVLPLPQGRPNSAPSDTRVQFHQDQAHFLVVHETQLAIYETTKLECMKQWAVRESLAPITHATFSCDSQLVYASFMDATVCVFSSANLRLRCRVNPSAYLPASLSNSNVHPLVIAAHPQEPNMFAVGLSDGGVHIFEPLESEGKWGVAPPAENGSASGAPTAPSVGASASDQPQR

binding [2]: binds | binding [3]: binds
B2: TPL fused to the C-terminal fragment of Venus (protein, UniProt Q94AI7 1-1131)
chain: B1 chain

Reference: PMC11963488
